Measurements reported in patent US20190135918A1.
These are yes or no findings as the source states them, for the method shown. Some entries that bind do so weakly or less than the wild type. For some assays here: Tags and fused reporters may be left off the sequences shown. Each block holds one binder with its values, some of them ahead of it.

Chains of the proteins cited; added tags and fusions are not shown. Lines headed by an entry give the natural chain unless they say otherwise; changes in a name come on top.
UniProt Q5VAN0: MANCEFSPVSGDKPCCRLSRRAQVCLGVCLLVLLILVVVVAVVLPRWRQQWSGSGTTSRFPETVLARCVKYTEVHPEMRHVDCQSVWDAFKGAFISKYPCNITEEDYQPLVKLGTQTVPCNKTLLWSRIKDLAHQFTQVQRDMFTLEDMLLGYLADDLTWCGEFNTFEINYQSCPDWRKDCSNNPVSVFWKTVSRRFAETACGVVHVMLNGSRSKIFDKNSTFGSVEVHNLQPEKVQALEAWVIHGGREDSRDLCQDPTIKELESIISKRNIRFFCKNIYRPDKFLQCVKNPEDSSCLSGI
UniProt P28907: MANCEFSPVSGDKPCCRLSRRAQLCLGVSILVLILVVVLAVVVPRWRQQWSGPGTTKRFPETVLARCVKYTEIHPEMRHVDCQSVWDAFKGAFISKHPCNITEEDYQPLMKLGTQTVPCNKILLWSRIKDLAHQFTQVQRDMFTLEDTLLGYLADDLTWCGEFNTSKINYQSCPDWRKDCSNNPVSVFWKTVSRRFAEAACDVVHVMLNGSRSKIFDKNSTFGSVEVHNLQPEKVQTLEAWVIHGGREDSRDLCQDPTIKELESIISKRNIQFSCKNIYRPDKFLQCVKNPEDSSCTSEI

Columns and labels:
[1] = target: soluble extracellular region of cynomolgus monkey CD38 antigen fused to a 6-His-tag (cynomolgus monkey) (UniProt Q5VAN0); test: SPR (FIG. 24)
[2] = target: soluble extracellular region of human CD38 fused to a 6-His-tag (human) (UniProt P28907); test: SPR, antibody immobilized, human CD38 extracellular domain injected as control
[3] = target: soluble extracellular region of cynomolgus monkey CD38 antigen fused to a 6-His-tag (cynomolgus monkey) (UniProt Q5VAN0); test: SPR, antibody on the chip, CD38 extracellular domain injected (concentration not given)
[4] = target: soluble extracellular region of human CD38 fused to a 6-His-tag (human) (UniProt P28907); test: as above
[5] = target: soluble extracellular region of human CD38 fused to a 6-His-tag (human) (UniProt P28907); test: SPR, antibody immobilized on the chip, human CD38 extracellular domain injected as control
[6] = target: cynomolgus monkey CD3 epsilon 1-26_Fc fusion protein (cynomolgus monkey); test: SPR, human IgG1 format, graded relative to chimeric SP34; one grade for human and cynomolgus protein
[7] = target: human CD3 epsilon 1-26_Fc fusion protein (human); test: as above
[8] = target: soluble extracellular region of human CD38 fused to a 6-His-tag (human) (UniProt P28907); test: SPR, antibody captured on protein G chip, human CD38-His injected at 0.1 to 25 nM
[9] = target: soluble extracellular region of human CD38 fused to a 6-His-tag (human) (UniProt P28907); test: SPR, captured antibody (inset on the sheet shows Protein A, legend paragraph 60 says protein G), human CD38-His injected at 0.1 to 50 nM
[10] = target: cynomolgus monkey CD3 epsilon 1-26_Fc fusion protein (cynomolgus monkey); test: scFv-Fc format; SPR on CD3 epsilon 1-26 Fc by paragraph 181
[11] = target: human CD3 epsilon 1-26_Fc fusion protein (human); test: as above

B2: VH1/VL4 (antibody, V domains shown)
VH: EVQLVESGGGLVQPGGSLRLSCAASGFTFNTYAMNWVRQAPGKGLEWVARIRSKYNNYATYYADSVKGRFTISRDDSKNTLYLQMNSLRAEDTAVYYCVRHGNFGNSYVSWFAYWGQGTTVTVSS
VL: EAVVTQSATLSVSPGERATLSCRSSTGAVTTSNYANWVQEKPGQAFRGLIGGANKRAPGVPARFSGSLSGDEATLTISSLQSEDFAVYFCALWYSNLWVFGQGTKLEIKR
binding [6]: binds
binding [7]: binds

B5: SP34 H1L21 scFv-Fc with T29A in the light chain (scFv, name in Kabat numbering, V domains shown)
VH: EVQLVESGGGLVQPGGSLRLSCAASGFTFNTYAMNWVRQAPGKGLEWVARIRSKYNNYATYYADSVKGRFTISRDDSKNTLYLQMNSLRAEDTAVYYCVRHGNFGNSYVSWFAYWGQGTTVTVSS
VL: EIVVTQSPATLSVSPGERATLSCRSSTGAVTASNYANWVQEKPGQAFRGLIGGANKRAPGVPARFSGSLSGDEATLTISSLQSEDFAVYYCALWYSNLWVFGQGTKLEIK
binding [10]: binds
binding [11]: binds

Further lines, results first:

binding [1]: binds
binding [2]: binds
binding [3]: binds
binding [4]: binds
binding [5]: binds
B1: humanized 9G7 antibody (best-fit version) as used in Example 10 (antibody, human IgG1, kappa, V domains shown)
VH: QVTLKESGPTLVKPTQTLTLTCTFSGLSLSTSGKGVGWIRQPPGKALEWLAHIWWDDDKRYNPALKSRLTITKDTSKNQVVLTMTNMDPVDTATYYCARIELGRSYVMDYWGQGTLVTVSS
VL: DIQMTQSPSSLSASVGDRVTITCQASQDVITSVAWFQQKPGKAPKLLIYSASYRYTGVPSRFSGSGSGTDFTFTISSLQPEDIATYYCQQHYTIPLTFGQGTKLEIKR

binding [8]: binds
B3: humanized 9G7 best-fit antibody (antibody, human IgG1, kappa, V domains shown)
VH: QVTLKESGPTLVKPTQTLTLTCTFSGLSLSTSGKGVGWIRQPPGKALEWLAHIWWDDDKRYNPALKSRLTITKDTSKNQVVLTMTNMDPVDTATYYCARIELGRSYVMDYWGQGTLVTVSS
VL: DIQMTQSPSSLSASVGDRVTITCQASQDVITSVAWYQQKPGKAPKLLIYSASYRYTGVPSRFSGSGSGTDFTFTISSLQPEDIATYYCQQHYTIPLTFGQGTKLEIKR

binding [9]: binds
B4: humanized 9G7 best-framework antibody (antibody, human IgG1, kappa, V domains shown)
VH: EVQLVESGGGLVQPGGSLRLSCAFSGLSLSTSGKGVGWIRQAPGKGLEWLAHIWWDDDKRYNPALKSRLTISKDTSKNTVYLQMNSLRAEDTAVYYCARIELGRSYVMDYWGQGTLVTVSS
VL: DIQMTQSPSSLSASVGDRVTITCRASQDVITSVAWFQQKPGKAPKLLIYSASYRYTGVPSRFSGSGSGTDFTLTISSLQPEDFATYYCQQHYTIPLTFGQGTKVEIKR
